Values from PubChem BioAssay AID1508588 (Peter MacCallum Cancer Centre, 2020)
Shown is a random part of about 18,000 reagents tested. In the full data, 790 (4.4%) got an active call. 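Calls rest on a combination of fold-change classes in drug and vehicle arms, not all shown here.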 No sequences are given here.

Purpose: 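Which gene losses make BRAF-mutant melanoma cells more responsive to vemurafenib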 (primary screen)
System: human WM266.4 melanoma cells (BRAF V600 mutant)
Knock-down reagent: siRNA pool against human genes, 40 nM
Time to read-out: 96 h from transfection to read-out
Treatment: vemurafenib 300 nM (about IC25), added 48 h after transfection, for 48 h; comparison arm got DMSO vehicle only
Read-out: 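Cell gain (DAPI nuclei at end minus before drug, mean of two replicates) and medium lactate by absorbance per cell, both as ratio to non-targeting siRNA, also grouped into fold-change classes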
Scale: cell gain with vemurafenib: higher = more cell gain than with non-targeting siRNA; lactate per cell with vemurafenib: higher = more lactate made per cell
Active means: 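Enhancement is called by pairing each knock-down's vehicle-arm and drug-arm fold-change classes for viability or glycolysis; which class combinations qualify is not given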
Meaning of the calls: active = enhances vemurafenib effect; inactive = no enhancement seen

Gene	cell gain with vemurafenib	lactate per cell with vemurafenib	call
TLN2	0.53	0.58	inactive
ANK1	1.01	0.84	inactive
OR52K2	0.73	0.84	inactive
CADPS2	0.06	2.15	inactive
PCDHA6	0.93	0.86	inactive
COQ8A	0.22	0.31	inactive
MBOAT2	0.91	0.79	inactive
BRPF3	0.9	1.01	inactive
TMC6	0.35	0.72	inactive
DIMT1	0.65	1.01	inactive
MAGEA12	0.85	0.72	inactive
RAC1	0.14	2.36	inactive
ATP5MG	0.37	1.12	inactive
NRDE2	0.64	1.44	inactive
CDYL2	0.64	1.23	inactive
WFDC5	1.01	1.04	inactive
PHKB	0.52	1.18	inactive
SRCAP	0.2	1.89	inactive
DYRK1A	1.28	0.66	inactive
PPOX	0.33	1.12	inactive
METTL21C	0.28	1.31	inactive
LRRN4CL	0.99	0.48	inactive
ACADM	0.56	0.9	inactive
WDR83	0.14	2.65	inactive
XPOT	0.89	0.37	inactive
CNOT9	0.6	0.9	inactive
CHPF2	0.5	0.86	inactive
IFNA7	0.08	1.17	inactive
CD226	0.59	0.93	inactive
DSC3	0.29	1.21	inactive
CEP290	1.15	0.7	inactive
CACHD1	0.92	0.58	inactive
PALS1	0.89	0.52	inactive
WDR64	0.8	0.96	inactive
CCDC124	0.69	0.69	inactive
EMILIN3	0.21	1.73	inactive
UQCC2	0.87	2.12	inactive
OR10T2	0.33	0.68	inactive
BCO2	0.65	1.52	inactive
ZNF821	1.11	0.72	inactive
OR4C11	0.25	0.9	inactive
PPFIA2	0.44	1.33	inactive
STX6	0.24	0.58	inactive
STXBP4	1.21	1.12	inactive
TLX1	1.06	0.84	inactive
IGFBP3	0.27	1.7	inactive
PIP5K1B	0.87	0.67	inactive
MS4A2	0.19	1.1	inactive
TMEM231	0.7	0.77	inactive
TMEM26	0.89	0.44	inactive
ZNF629	1.06	0.73	inactive
RSF1	0.49	1.3	inactive
BEX4	0.54	0.7	inactive
PITPNM2	1	0.36	inactive
ZNF747	0.24	1.03	inactive
TARS2	0.74	1.14	inactive
AREG	0.55	0.42	active
MED17	0.8	1.22	inactive
GPX1	0.6	1.08	inactive
SLC26A10P	0.84	0.5	inactive
RHOBTB3	0.38	1.19	inactive
POLR2F	0.02	1.66	inactive
BUB1B	0.62	0.72	inactive
MRPL36	0.41	0.74	inactive
LCTL	0.56	1.13	inactive
ISCA1	1.08	1.76	inactive
ZNF133	0.69	0.9	inactive
ARSF	0.64	0.82	inactive
FAM91A1	0.84	0.92	inactive
CXCL8	0.34	1.59	inactive
CABS1	0.47	1.48	inactive
EBNA1BP2	0	2.52	inactive
ARPC2	0.21	0.02	active
CDRT4	0.45	1.32	inactive
RNF222	1.12	0.85	inactive
CMIP	-0.06	1.48	inactive
MTTP	0.71	1.1	inactive
HPX	0.47	1.12	inactive
TRIP6	0.42	0.7	inactive
ELOVL6	0.59	1.25	inactive
GTF2H2C_2	0.6	1.19	inactive
NUFIP1	0.72	0.84	inactive
SLC10A5	0.34	0.94	inactive
OR51D1	0.83	0.89	inactive

Laid out differently: results already given
PHKB
- cell gain with vemurafenib: 0.52
- lactate per cell with vemurafenib: 1.18
- call: inactive

SRCAP
- cell gain with vemurafenib: 0.2
- lactate per cell with vemurafenib: 1.89
- call: inactive

DYRK1A
- cell gain with vemurafenib: 1.28
- lactate per cell with vemurafenib: 0.66
- call: inactive

PPOX
- cell gain with vemurafenib: 0.33
- lactate per cell with vemurafenib: 1.12
- call: inactive

METTL21C
- cell gain with vemurafenib: 0.28
- lactate per cell with vemurafenib: 1.31
- call: inactive

LRRN4CL
- cell gain with vemurafenib: 0.99
- lactate per cell with vemurafenib: 0.48
- call: inactive

ACADM
- cell gain with vemurafenib: 0.56
- lactate per cell with vemurafenib: 0.9
- call: inactive

WDR83
- cell gain with vemurafenib: 0.14
- lactate per cell with vemurafenib: 2.65
- call: inactive

XPOT
- cell gain with vemurafenib: 0.89
- lactate per cell with vemurafenib: 0.37
- call: inactive

CNOT9
- cell gain with vemurafenib: 0.6
- lactate per cell with vemurafenib: 0.9
- call: inactive
